Results taken from publication PMC6028525.
No constants are given. Whether binding was seen depends on the method and setting. In cells and extracts the contact can be indirect. A yes stands for co-enrichment or nearness to the bait. Other partners may have been found. For part of these data: Where a sequence is shown, tags or fusion partners need not be part of it.

By UniProt entry, the sequences of proteins in these tests, tags left out. Where a name states a change or a piece, a line headed by the entry shows the natural chain unless it says otherwise.
UniProt Q9VVM7: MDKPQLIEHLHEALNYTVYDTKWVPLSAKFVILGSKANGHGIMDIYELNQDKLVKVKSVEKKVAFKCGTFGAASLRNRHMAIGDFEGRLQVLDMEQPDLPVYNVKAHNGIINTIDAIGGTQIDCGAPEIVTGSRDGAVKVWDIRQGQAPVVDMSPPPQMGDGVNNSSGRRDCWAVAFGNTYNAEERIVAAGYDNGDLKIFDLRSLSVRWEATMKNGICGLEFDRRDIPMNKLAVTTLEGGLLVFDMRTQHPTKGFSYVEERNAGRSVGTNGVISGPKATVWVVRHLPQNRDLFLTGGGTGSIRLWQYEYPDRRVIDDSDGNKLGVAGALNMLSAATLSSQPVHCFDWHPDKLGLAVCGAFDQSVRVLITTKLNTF
UniProt E1JJ04: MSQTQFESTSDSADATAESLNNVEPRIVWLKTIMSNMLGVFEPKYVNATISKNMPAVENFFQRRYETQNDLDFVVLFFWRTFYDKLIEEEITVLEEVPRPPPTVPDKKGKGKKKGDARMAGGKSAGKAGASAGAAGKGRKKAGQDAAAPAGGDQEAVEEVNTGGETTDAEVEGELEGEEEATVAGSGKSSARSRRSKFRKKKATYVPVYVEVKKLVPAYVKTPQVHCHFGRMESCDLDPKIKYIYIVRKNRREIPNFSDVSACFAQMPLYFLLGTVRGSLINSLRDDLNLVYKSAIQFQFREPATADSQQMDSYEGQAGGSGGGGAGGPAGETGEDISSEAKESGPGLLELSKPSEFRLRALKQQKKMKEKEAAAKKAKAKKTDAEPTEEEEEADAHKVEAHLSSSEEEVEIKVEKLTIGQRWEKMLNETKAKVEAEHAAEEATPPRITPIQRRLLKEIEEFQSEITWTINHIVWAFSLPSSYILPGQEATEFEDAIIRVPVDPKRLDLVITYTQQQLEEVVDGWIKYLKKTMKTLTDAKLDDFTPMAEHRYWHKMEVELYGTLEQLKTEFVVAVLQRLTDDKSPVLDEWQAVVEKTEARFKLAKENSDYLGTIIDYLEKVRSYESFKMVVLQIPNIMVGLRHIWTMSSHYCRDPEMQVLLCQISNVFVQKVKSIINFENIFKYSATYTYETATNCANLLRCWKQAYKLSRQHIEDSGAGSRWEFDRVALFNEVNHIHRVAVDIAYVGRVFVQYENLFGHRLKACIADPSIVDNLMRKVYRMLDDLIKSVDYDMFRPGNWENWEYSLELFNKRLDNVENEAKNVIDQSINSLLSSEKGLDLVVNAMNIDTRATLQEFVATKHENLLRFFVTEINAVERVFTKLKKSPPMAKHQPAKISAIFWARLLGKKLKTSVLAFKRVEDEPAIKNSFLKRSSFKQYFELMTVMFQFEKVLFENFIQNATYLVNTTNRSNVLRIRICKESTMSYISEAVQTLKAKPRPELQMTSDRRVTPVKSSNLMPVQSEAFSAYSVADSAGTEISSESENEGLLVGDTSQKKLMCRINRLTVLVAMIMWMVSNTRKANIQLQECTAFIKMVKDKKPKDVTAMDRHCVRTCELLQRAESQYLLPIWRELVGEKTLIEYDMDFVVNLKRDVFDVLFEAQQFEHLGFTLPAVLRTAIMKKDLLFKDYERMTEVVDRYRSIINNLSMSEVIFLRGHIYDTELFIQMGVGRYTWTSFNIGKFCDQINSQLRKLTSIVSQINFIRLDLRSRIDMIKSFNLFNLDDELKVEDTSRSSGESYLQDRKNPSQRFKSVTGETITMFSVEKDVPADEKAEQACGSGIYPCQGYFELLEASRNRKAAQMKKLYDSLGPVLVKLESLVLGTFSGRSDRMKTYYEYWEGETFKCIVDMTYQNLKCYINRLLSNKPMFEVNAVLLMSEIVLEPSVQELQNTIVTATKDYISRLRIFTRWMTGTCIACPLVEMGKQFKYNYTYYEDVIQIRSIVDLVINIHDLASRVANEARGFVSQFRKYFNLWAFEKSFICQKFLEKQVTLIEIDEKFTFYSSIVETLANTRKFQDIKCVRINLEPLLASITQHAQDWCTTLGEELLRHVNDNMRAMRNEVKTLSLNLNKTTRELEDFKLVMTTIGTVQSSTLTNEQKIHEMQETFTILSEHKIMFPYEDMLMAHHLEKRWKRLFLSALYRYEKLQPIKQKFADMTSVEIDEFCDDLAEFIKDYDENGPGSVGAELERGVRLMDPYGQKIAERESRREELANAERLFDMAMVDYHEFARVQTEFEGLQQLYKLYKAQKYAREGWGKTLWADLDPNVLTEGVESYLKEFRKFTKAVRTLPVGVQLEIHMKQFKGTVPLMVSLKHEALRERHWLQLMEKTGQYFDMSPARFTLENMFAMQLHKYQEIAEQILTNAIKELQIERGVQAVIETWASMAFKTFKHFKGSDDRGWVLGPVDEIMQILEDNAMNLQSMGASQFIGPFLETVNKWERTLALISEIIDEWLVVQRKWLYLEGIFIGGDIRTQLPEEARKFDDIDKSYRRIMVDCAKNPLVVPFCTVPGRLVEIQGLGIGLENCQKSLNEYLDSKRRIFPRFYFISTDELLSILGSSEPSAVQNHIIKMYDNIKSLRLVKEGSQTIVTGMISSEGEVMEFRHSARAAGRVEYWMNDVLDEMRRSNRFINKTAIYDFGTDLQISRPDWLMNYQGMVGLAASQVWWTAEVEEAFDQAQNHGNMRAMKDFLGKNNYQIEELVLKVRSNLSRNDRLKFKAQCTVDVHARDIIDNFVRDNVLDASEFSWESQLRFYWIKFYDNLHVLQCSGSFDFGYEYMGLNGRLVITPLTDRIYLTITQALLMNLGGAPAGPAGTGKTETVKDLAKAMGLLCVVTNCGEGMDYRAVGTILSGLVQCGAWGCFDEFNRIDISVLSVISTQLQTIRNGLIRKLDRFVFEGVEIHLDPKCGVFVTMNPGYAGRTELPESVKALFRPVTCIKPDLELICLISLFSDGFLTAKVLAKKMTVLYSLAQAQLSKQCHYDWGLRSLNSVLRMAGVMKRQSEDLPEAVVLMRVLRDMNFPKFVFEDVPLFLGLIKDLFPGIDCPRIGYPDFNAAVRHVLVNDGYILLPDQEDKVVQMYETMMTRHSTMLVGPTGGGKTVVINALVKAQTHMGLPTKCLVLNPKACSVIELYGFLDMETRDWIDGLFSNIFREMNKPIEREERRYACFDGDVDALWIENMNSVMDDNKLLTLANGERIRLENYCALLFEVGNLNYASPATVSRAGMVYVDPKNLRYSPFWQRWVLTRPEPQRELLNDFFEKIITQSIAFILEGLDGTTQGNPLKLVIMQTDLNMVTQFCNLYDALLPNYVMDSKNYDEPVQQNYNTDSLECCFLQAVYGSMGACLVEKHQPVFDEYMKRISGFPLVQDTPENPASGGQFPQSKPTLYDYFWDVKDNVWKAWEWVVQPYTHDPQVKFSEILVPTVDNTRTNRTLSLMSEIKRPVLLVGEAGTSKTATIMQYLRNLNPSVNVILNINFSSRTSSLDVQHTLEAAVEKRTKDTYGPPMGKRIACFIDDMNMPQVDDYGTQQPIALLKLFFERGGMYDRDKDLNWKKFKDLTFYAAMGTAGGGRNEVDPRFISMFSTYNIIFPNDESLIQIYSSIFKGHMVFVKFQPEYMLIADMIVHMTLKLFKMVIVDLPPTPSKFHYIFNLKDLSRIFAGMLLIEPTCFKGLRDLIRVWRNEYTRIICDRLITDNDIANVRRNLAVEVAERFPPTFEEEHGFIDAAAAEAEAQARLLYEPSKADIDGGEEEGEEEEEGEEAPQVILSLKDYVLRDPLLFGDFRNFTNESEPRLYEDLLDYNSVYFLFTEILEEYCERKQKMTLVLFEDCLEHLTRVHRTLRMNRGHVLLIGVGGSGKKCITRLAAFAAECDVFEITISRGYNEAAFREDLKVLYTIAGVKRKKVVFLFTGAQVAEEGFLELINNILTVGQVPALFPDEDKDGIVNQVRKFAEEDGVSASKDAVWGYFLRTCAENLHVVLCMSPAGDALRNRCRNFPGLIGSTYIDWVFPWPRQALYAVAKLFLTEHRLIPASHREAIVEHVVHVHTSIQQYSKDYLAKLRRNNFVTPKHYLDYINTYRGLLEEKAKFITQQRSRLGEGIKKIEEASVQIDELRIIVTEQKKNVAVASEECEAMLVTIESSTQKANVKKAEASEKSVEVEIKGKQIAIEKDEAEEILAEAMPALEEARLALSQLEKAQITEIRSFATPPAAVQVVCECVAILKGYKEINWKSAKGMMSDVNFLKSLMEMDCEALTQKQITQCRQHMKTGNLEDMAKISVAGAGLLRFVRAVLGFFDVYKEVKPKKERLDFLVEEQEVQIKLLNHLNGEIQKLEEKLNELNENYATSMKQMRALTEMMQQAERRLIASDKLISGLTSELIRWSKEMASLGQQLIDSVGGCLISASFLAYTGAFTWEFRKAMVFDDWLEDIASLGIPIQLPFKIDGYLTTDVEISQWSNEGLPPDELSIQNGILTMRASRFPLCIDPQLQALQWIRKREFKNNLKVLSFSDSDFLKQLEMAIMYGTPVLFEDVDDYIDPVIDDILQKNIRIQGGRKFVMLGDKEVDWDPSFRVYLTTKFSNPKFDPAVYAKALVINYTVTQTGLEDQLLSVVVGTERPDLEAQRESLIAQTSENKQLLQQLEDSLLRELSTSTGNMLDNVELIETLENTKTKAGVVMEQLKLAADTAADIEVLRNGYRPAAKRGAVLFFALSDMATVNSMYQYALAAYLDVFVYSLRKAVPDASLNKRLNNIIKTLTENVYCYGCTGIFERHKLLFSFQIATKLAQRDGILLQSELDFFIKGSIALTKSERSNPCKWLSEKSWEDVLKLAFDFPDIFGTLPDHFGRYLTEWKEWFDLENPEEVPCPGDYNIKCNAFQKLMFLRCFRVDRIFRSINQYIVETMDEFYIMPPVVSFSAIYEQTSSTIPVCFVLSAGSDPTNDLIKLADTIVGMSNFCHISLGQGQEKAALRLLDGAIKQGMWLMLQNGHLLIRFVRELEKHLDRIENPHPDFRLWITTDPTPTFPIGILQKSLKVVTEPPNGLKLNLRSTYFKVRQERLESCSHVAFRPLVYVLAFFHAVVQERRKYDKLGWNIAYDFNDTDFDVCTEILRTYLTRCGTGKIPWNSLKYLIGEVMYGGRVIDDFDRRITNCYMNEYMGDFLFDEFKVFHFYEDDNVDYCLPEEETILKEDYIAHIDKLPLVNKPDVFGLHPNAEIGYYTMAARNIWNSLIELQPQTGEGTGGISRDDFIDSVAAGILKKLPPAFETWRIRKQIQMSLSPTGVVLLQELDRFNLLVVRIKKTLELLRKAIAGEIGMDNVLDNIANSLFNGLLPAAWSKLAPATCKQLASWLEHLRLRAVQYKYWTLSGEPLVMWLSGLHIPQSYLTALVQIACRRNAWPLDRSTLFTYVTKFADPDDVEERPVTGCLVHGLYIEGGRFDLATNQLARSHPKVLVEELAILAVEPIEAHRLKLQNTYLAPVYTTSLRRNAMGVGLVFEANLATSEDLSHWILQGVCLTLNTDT

Tests used:
[1] = target: T1, Spag1-mVenus fusion protein (Drosophila melanogaster) (UniProt Q9VBA1); experiment: affinity purification with mass spectrometry; GFP-Trap_A beads on lysates of adult testes of Wdr92-mVenus or Spag1-mVenus males, 3 h at 4°C; lysis buffer 50 mM Tris-HCl pH 7.5, 100 mM NaCl, 10% glycerol, 5 mM EDTA, 0.15% Triton X-100, 0.5% sodium deoxycholate; control Gap43-mVenus testes; on-bead digest, label-free quantification
T1 sequence: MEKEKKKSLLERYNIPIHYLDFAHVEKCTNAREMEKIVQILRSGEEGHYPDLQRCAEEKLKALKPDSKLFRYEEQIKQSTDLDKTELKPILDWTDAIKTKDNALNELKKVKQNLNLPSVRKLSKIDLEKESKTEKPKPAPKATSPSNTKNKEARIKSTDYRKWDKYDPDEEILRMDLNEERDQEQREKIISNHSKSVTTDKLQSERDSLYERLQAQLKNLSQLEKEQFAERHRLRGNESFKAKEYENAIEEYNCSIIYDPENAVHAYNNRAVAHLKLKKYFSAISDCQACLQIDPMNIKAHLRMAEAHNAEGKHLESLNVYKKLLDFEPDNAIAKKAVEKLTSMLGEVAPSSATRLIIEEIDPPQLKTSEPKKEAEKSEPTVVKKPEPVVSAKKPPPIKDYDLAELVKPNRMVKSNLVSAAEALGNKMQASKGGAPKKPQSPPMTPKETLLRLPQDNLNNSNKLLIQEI

[2] = target: Wdr92-mVenus fusion protein (Drosophila melanogaster) (UniProt Q9VVM7); experiment: as above

| binding [1] | binding [2] | Substance |
| --- | --- | --- |
| binds | binds | Dhc98D (from UniProt E1JJ04 1-5073) |
| binds |  | Wdr92 |
